Experimental data as given in patent US20260116943A1 (Zealand Pharma A/S, priority 2021, published 2026).

Test: general procedure: Fmoc solid-phase peptide synthesis

H-HGEGTFSSELATILDALAARDFIAWLIATKITDKKKKKK-NH2
step yield (purification step, total purification yield): ≥35% | isolated mass (whole synthesis): about 1.3 kg | crude HPLC purity (whole synthesis, RP-HPLC with UV or MS detection, scale of the general procedure 10 kg peptide resin corresponding to 0.8 mole): ~45% | final HPLC purity (whole synthesis, RP-HPLC with UV or MS detection, scale of the general procedure 10 kg peptide resin corresponding to 0.8 mole, run 1): 98.2% | final HPLC purity (whole synthesis, RP-HPLC with UV or MS detection, scale of the general procedure 10 kg peptide resin corresponding to 0.8 mole, run 2): 89% | final HPLC purity (whole synthesis, RP-HPLC with UV or MS detection, scale of the general procedure 10 kg peptide resin corresponding to 0.8 mole, run 3): 96% | final HPLC purity (whole synthesis, RP-HPLC with UV or MS detection, scale of the general procedure 10 kg peptide resin corresponding to 0.8 mole, run 4): 98% | final HPLC purity (whole synthesis, RP-HPLC, scale of the general procedure 10 kg peptide resin corresponding to 0.8 mole): ≥97.75%
